Experimental findings from PubChem BioAssay AID1347423 (Functional Genomics Laboratory (NCATS/FGL), 2020) are described below.

About 210 (0.4%) of roughly 52,000 sequences were called active.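 How the source made its calls: active means gene whose silencing raises cell survival under the drug, median off-target-corrected z-score across its silencing RNAs 2 or more; inactive means the rest.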 Some of the results follow.

This experiment can be described thus: Resistance to Poly (ADP-Ribose) Polymerase inhibitor: Gene Identification via Genome-wide siRNA Screen. Conditions: mouse BRCA2 R2336H ES cells, olaparib, CellTiter-Glo viability; active compounds read high. The gist of the method: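 Mouse BRCA2 R2336H ES cells were reverse-transfected with siRNA (20 nM final), treated at 48 h with 500 nM olaparib, and read by CellTiter-Glo after 72 h. Scores: MAD-based z per siRNA, median per gene, seed off-target correction.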
As to GGAAGAAAGGAGAAAACCATT against Rars, the z-score is inactive: -2.88. Under GGAGGUGGUCCAGAAUUUUTT against Cotl1 stands inactive: -0.412; under GGAGUGCGGACGAUAAUACTT against Ppp1r3f, inactive: 0.357; under GCCUUCCAACGAAGUUAAUTT against Epha3, inactive: -1.64. For GCUAAGUAAGGUGGUAUAUTT against Dgka, the z-score was inactive: -1.03. Take GCCUGUUCCAGAAUUGCUATT against Bcl7c: the z-score was inactive: -0.142. With GGUCCAGCUCAUGAAACUUTT against Snf1lk, the z-score was inactive: -1.38. Regarding GGUGGAGAUAAAAAGAGAGTT against Hnrpu, the z-score was inactive: -0.753. For the sequence GGAACAAAGAUGUCAAGUCTT against Olfr521, the z-score is inactive: 0.379. “GGCUAAUUGCUACGUUCCCTT against 2010011I20Rik”: the z-score is inactive: 0.281. As to CGGUUCCAUUCUACAUUUUTT against Scpep1, the z-score is inactive: -0.174. Consider “GGUUCACAUGUACAUUAAATT against C530008M17Rik”, for which the z-score is inactive: -0.14. As to GCGAUGAUGUACAAAAGGGTT against Jph3, the z-score is inactive: 0.77. Turning to GCGACAUCUCUCAAGCUUATT against BC036313, the z-score is inactive: 2. On to GCUGACGAAAUCAAGAACCTT against Sox9, for which the z-score was inactive: 0.149.

As for GGGUUUUUGUGGGUCUAGGTT against Lta, the z-score is inactive: 0.932. Next, “GGAAAGAAGAAAUGAGAAGTT against 0610005I04”: inactive: 0.759. In the case of GGACGUGGGCUCUCUAGAUTT against S100a13, the z-score is inactive: -1.32. Regarding CCAUCUAUACCCUGGACGATT against Galr2, the z-score is inactive: -0.859. Turning to GUCUCUUUGCCCUGUGCUATT against V1rb10, the z-score was inactive: -0.332. With GCUGGAUGCGACAAUCUGATT against Aqp11, the z-score is inactive: 0.903.

With “GCAUAAACUUUAGGCAUGGTT against 4833435D08Rik”, the z-score is inactive: -0.435. Turning to CGCGUAUAGAACAUUAAUCTT against Cdc14b, the z-score is inactive: 1.05. With GGAACACACCUGUUAUGAUTT against Prkag3, the z-score was inactive: 2.68. Turning to CCUACUAACAACAAGAGCATT against Pcdhga5, the z-score was inactive: -0.521. Next, GGAGCAUUUGUUUCCAAGATT against Cd38: inactive: -0.384; GGCAUUAACCAUGAGUGUATT against Zfp423: inactive: -2.26; GGUCCAGCAUUUGAAAUUATT against Moap1: inactive: 0.674. Next, CGCUUGCUCGGAUUGACAATT against Rya3: inactive: -0.918; GCAAGAGCAUGCUUACGGUTT against Ccl1: inactive: 1.15; GGCGUAUGUUCGCUUGGCUTT against Rpl23a: inactive: -3.18.

With CCCAAAAACGUGACAUCUUTT against Inppl1, the z-score is inactive: 0.657.

As to GGACGGUCUUGCCUUCUUCTT against MGC67174, the z-score is inactive: 0.791. Next, GGUUCUUUGUAUUGAUCAATT against Adamts20: inactive: -0.117; CCUGCCAAUCUGUCUAAGUTT against Ccdc5: inactive: 0.0628; GCCAAUUGAAGGAUAUCUUTT against Ocm: inactive: -1.05. Consider “GGAAGAAAGUGAAACUUGATT against 1700025B16Rik”, for which the z-score is inactive: -1.31.

Consider GCAAAUGGUGCAUACGUGATT against Slc35d1, for which the z-score is inactive: 0.00511.

For the sequence CCUACCUCUUGUUGGAAAATT against Fbxo15, the z-score was inactive: -1.09. Consider CGAAAGAGAGAGUGGGUGATT against Cdh3, for which the z-score is inactive: 0.501. Regarding GCUCAGCAUGCUGAUUCCATT against LOC574428, the z-score is inactive: -1.43. Regarding GGCAAGCAUAAAGAUGAAUTT against Sema6d, the z-score was inactive: -0.519.

With GCUGAAUGCCAUAAACAGATT against Srms, the z-score was inactive: 1.41.

GCUCGUCAGAGACAAGCAUTT against Ptcd2: the z-score was inactive: 0.227. GGGUCUUGAAUACAGAGAGTT against Qscn6: the z-score was inactive: -0.209. For the sequence GGAAGAAUUCUUGAAGAUGTT against Cetn4, the z-score was inactive: 0.722. Turning to GCCCAAGGAUUGGCAAAAGTT against Foxj1, the z-score is inactive: -0.773.

For the sequence “GCCAUGAUACCUUGUUAUUTT against 4833424O15Rik”, the z-score was inactive: 0.279.

For the sequence GGUGACCACUUUUAUCUGATT against Thedc1, the z-score is inactive: 0.599. On to GCAGUUGGUAUUGUUAACUTT against Maml1, for which the z-score was inactive: 0.136. Take CCAUUGUUUGUAAUCUAGATT against Rbed1: the z-score was inactive: -0.358.

With GGUGUGGAGUAUGUAUGCUTT against Aplp1, the z-score is inactive: 0.665. With GGAAUUUUAUGCCAAGAAUTT against Hip1r, the z-score is inactive: 1.09.

GGUGUUUACUCCGUACCCATT against Tbrg4: the z-score is inactive: -0.931. For GGAUCAAUAAGGAAUCUCUTT against Ugp2, the z-score was inactive: 0.282.

Turning to GGAGAAAGCUACUUAUAAGTT against Fbxo17, the z-score was inactive: 0.11. Regarding GGUUUUGAGCAAAAUUCUATT against Nrd1, the z-score was inactive: -0.299. In the case of GGGCAAAAACUGUCUGACUTT against Rps3a, the z-score was inactive: -3.46.

Take CGACACACCAGAACGAAUCTT against Cklfsf8: the z-score was inactive: -0.275. For CCGUUGGAUAAUGUCACAUTT against Stx4a, the z-score was inactive: 2.05. Turning to GGAUGAAGACCCAUAUGUGTT against Ap1b1, the z-score is inactive: -1.07. In the case of GCUAAAGUUCCAAUAUGGGTT against D5Wsu46e, the z-score is inactive: -0.828.

Consider CCAUCAUGAACACCAAGCUTT against Olfr464, for which the z-score was inactive: -1.01. As to GGUGAGGAGGUACCAGGUATT against Nthl1, the z-score is inactive: 0.449.

CGUCAUUGGCCUUCAAAUGTT against Tagln: the z-score was inactive: -1.41. Turning to GCUUUUGUUACAUAAUGCUTT against Als2cr4, the z-score is inactive: 0.484. On to GGCCUAUGAAGUACUAUCUTT against Dnajb10, for which the z-score was inactive: -0.701. Next, CCCUCCAGUAAAUUUUAAGTT against Sox6: inactive: 1.09; “GGAGUUGUAGUGAGGGUCATT against A430096B05Rik”: inactive: 0.327; GCUUAUUGUCAUGAUCAUATT against Hsd17b7: inactive: -1.41. Under GGCGUGUUUUAUGUAUAACTT against Acsl3 stands inactive: 0.743; under GGGUUGUUCGGAGGAAACATT against Napb, inactive: -0.337; under GCUGACUUCAGUUGUGGCATT against Baz2a, inactive: 0.0438. Take GGGAAAAACUCUGUGUGUATT against Coasy: the z-score was inactive: -1.1. Take “GGGACUGUUUCUGUUAAUUTT against D9Ertd280e”: the z-score is inactive: -1.01.

On to CCUUCAAAUGAACUCUACUTT against Fcer1a, for which the z-score is inactive: -1.58. For the sequence CCUUUCAAUGACUACGAUUTT against Rnase9, the z-score is inactive: 0.0488.

With GCUGACCUCAAUGACUACATT against Ccl9, the z-score was inactive: -1.11. Take GCAUCAUACUGACCUGAGATT against Hemt1: the z-score is inactive: -1.09. On to GGCUGACAGUGGAGUCUAUTT against Ceacam9, for which the z-score was inactive: -3.14. Next, GGUUCAAGCAGGUCAAAGUTT against Acbd6: inactive: -0.134; GCCGGAGUGCACAAUCAAATT against Rarres2: inactive: 0.384.

Turning to GGAGAAUCUGGUCUGGGUATT against 4-Sep, the z-score was inactive: -1.34.

For the sequence GGAACGACUACAAUGAACCTT against Ppil5, the z-score is inactive: 0.255. Consider GGACAUGUCUCAGGAAAACTT against Btc, for which the z-score was inactive: -2.13. As for GCUACUAGAGGAGAUGGACTT against Sart1, the z-score was inactive: -2.47. For the sequence GGUGCUAAAUAAGACAAUGTT against Psma4, the z-score was inactive: -3.28. Regarding “GGUGUCCAGUUCAUCCAGGTT against 3110035E14Rik”, the z-score is inactive: -1.03. On to GGUACAUAUUACAUUCUUCTT against Cldn12, for which the z-score is inactive: 1.18.

Regarding GCUAACCAGUGAUCCUACATT against Olfr846, the z-score is inactive: -0.638. Take CCAUGAUCAAGAUUGUGCUTT against Slc29a1: the z-score was inactive: -0.707.

As for “GGAUCUUUACAUCUCUAACTT against 4733401H21Rik”, the z-score was inactive: 0.355.

As for CACCGAGUAUAUCUAUAAUTT against Ear14, the z-score was inactive: -0.941. Under GGUCAAAGUUAUGCAAUGUTT against Rp9h stands inactive: -0.432; under GGAGAACUGAAAGACGUGCTT against Vgll1, inactive: 1.23. Under CGCAUACAUCAGGUCACUATT against Katnb1 stands inactive: 0.57; under “GGAUAAAAAGGAUAAGAGCTT against 1700011K15Rik”, inactive: -0.315. Turning to GGUAAAAUAUAGUUUGCGCTT against Abca14, the z-score is inactive: 0.305. GGAAGACCAGCAGUUAAGATT against Grb10: the z-score is inactive: 0.15. Take GGACUGAAUCUUUAAAGGUTT against Nkx1-2: the z-score is inactive: 1.09.

For the sequence GGAGGACAACAAGUACUGCTT against Smap1, the z-score was inactive: 2.56. Turning to GGUACUGAUUGCUUUCUCUTT against Olfr1491, the z-score is inactive: -0.0899. Regarding GGACAAACGGGAAAAGAAGTT against Sprr2d, the z-score is inactive: -1.23. For the sequence GGACAACAUCUUCAAAGGATT against Slc12a1, the z-score is inactive: 0.366. For GCUGGGUGAACUUACAGGATT against Wars2, the z-score is inactive: 0.356. As to CCAGUGUAAUCGAGUGUGATT against Atp10a, the z-score was inactive: -1.48.
